# In the supplement of paper PMC9135407:
# Where “and” joins values, the source holds several entries; their conditions need not be identical. Identical values can stand only once. Counter-ions that a name gives are not always drawn. ± gives the standard deviation of the averaged measurements. This is one part of the list. Baselines shift from plate to plate; read single values as rough.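 Assay uses culture-activated primary human stellate myofibroblasts; lipid droplet recovery indicates inactivation. Measured: proportion of Hoechst-counted cells over a plate-specific Bodipy cutoff, duplicate wells, DMSO and nortriptyline as per-plate negative and positive controls. A hit scores, control-normalized, above the plate's top-tenth-percentile nortriptyline wells or ranks among its three best wells. Final well concentrations not reported.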
# Test system: primary human hepatic stellate cells (donor 1)
# Experiment: percent Bodipy-positive cells; higher = more lipid droplet accumulation
# Conditions: 48 h
# [1] = library stock concentration: 3.33 mM
# [2] = library stock concentration: 10 mM
# [3] = library stock concentration: 1 mM
# [4] = library stock concentration: 4.8 mM
smiles,measurement,setting,value
CNC(C)C(=O)NC(C(=O)N1CCCC1C(=O)NC(C(=O)NCCCCCCNC(=O)C(NC(=O)C1CCCN1C(=O)C(NC(=O)C(C)NC)C1CCCCC1)C(c1ccccc1)c1ccccc1)C(c1ccccc1)c1ccccc1)C1CCCCC1 (stereo not drawn),percent Bodipy-positive cells,[1],68.7 ± 9.4%
same,percent Bodipy-positive cells,[2],100%
CC(=O)c1cc([N+](=O)[O-])c(Sc2cccc(Cl)c2Cl)s1,percent Bodipy-positive cells,[1],50 ± 30%
same,percent Bodipy-positive cells,[2],72.8 ± 16%
COc1cc2c(cc1OC)CN(CCc1ccc(NC(=O)c3cc(OC)c(OC)cc3NC(=O)c3cnc4ccccc4c3)cc1)CC2 [Tariquidar],percent Bodipy-positive cells,[1],36.8 ± 0.66%
same,percent Bodipy-positive cells,[2],60.7 ± 9.3%
NC1(Cc2ccc(Cl)cc2)CCN(c2ncnc3[nH]ccc23)CC1,percent Bodipy-positive cells,[2],97.64 ± 0.41%
"FC(F)(F)c1cc(COC2CCCNC2c2ccccc2)cc(C(F)(F)F)c1 [L-733,060 hydrochloride]",percent Bodipy-positive cells,[2],89.5 ± 7.7%
COc1cc(Cc2cnc(N)nc2N)cc(OC)c1OC [Trimethoprim],percent Bodipy-positive cells,,26.2 ± 4.2%
same,percent Bodipy-positive cells,[1],10.5 ± 4.4%
same,percent Bodipy-positive cells,library stock concentration: 6.9 mM,8.29% and 14.1%
same,percent Bodipy-positive cells,[2],25.8% and 28.4% and 13.3%
NC(=O)C(=O)O [Sodium Oxamate],percent Bodipy-positive cells,[2],32.9 ± 7.7%
COc1ccccc1OCCNCC(O)COc1cccc2[nH]c3ccccc3c12 (stereo not drawn) [Carvedilol],percent Bodipy-positive cells,[2],94.9 ± 0.14%
NC(=O)CCC/C=C\C[C@@H]1[C@@H](/C=C/[C@@H](O)CCc2ccccc2)[C@H](O)C[C@@H]1O [17-phenyl trinor Prostaglandin F2.alpha. amide],percent Bodipy-positive cells,[3],15.9 ± 4.5%
COCC1=C(C(=O)OC(C)OC(=O)OC(C)C)N2C(=O)[C@@H](NC(=O)/C(=N\OC)c3csc(N)n3)[C@H]2SC1 (stereo partly drawn),percent Bodipy-positive cells,[2],6.39 ± 4%
COCC1=C(C(=O)OC(C)OC(=O)OC(C)C)N2C(=O)[C@@H](NC(=O)/C(=N\OC)c3csc(N)n3)[C@H]2SC1 (stereo partly drawn) [Cefpodoxime proxetil],percent Bodipy-positive cells,library stock concentration: 3.6 mM,14 ± 6.7%
CCN(CC)CCOC(=O)C(c1ccccc1)C1CCCCC1 (stereo not drawn) [Drofenine hydrochloride],percent Bodipy-positive cells,,35.7 ± 0.62%
same,percent Bodipy-positive cells,[2],62.7 ± 5.7%
CN(C)c1cc2c(Nc3ccc4c(cnn4Cc4ccccc4)c3)ncnc2cn1,percent Bodipy-positive cells,[2],77.3 ± 6.6%
COc1ccc([C@H]2CNC(=O)C2)cc1OC1CCCC1 [(S)-(+)-Rolipram],percent Bodipy-positive cells,[2],12.1 ± 7.3%
CCC(C)C(COC(Cc1ccccc1)C(=O)NC(CCS(C)(=O)=O)C(=O)OC(C)C)NCC(N)CS (stereo not drawn),percent Bodipy-positive cells,library stock concentration: 7.9 mM,30.9 ± 2.3%
COc1ccccc1C1(O)CCN(CCCn2c3ccccc3c3ccccc32)CC1 [NNC 05-2090 hydrochloride],percent Bodipy-positive cells,[2],96.49 ± 0.93%
CC(CCCO)C1CCC2C3C(O)CC4CC(=O)CCC4(C)C3CC(O)C12C (stereo not drawn) [3-keto Petromyzonol],percent Bodipy-positive cells,[3],16.7 ± 9.8%
NC(N)=NCc1cccc(I)c1 [m-Iodobenzylguanidine hemisulfate],percent Bodipy-positive cells,[2],32.9 ± 2.5%
CCCCC(CC)CN1CN(CC(CC)CCCC)CC(C)(N)C1 (stereo not drawn) [Hexetidine],percent Bodipy-positive cells,,38.9 ± 14%
same,percent Bodipy-positive cells,[2],71.4 ± 3.2%
COc1cc2c(cc1OC)C(=O)C(CC1CCN(Cc3ccccc3)CC1)C2 (stereo not drawn) [Donepezil],percent Bodipy-positive cells,[2],32.8 ± 15%
COc1cc2c(cc1OC)C(=O)C(CC1CCN(Cc3ccccc3)CC1)C2 (stereo not drawn) [Donepezil hydrochloride],percent Bodipy-positive cells,[4],36.1 ± 8.7%
C=CC(=O)c1ccc2ccccc2c1,percent Bodipy-positive cells,[2],6.83 ± 0.56%
NC[C@H]1c(c2C[C@@H]([C@]3(C4)CC(CC45)CC(C5)C3)O1)ccc(O)c2O.Cl,percent Bodipy-positive cells,[2],76.6 ± 3.6%
O=C(O)CCC/C=C\C[C@@H]1[C@@H](/C=C/C(=O)COc2cccc(C(F)(F)F)c2)[C@H](O)C[C@@H]1O [15-keto Fluprostenol],percent Bodipy-positive cells,[3],16.5 ± 7.4%
N#CC(=C(/N)Sc1ccccc1N)/C(C#N)=C(/N)Sc1ccccc1N,percent Bodipy-positive cells,[2],17.1% and 5.83%
same,percent Bodipy-positive cells,library stock concentration: 13.1 mM,20.3 ± 3.9%
NS(=O)(=O)c1cccc2c1c([N+](=O)[O-])cc1nc(O)c(O)nc12,percent Bodipy-positive cells,[2],7.19 ± 2.6%
NS(=O)(=O)c1cccc2c1c([N+](=O)[O-])cc1nc(O)c(O)nc12 [NBQX disodium],percent Bodipy-positive cells,[2],34.4 ± 11%
NS(=O)(=O)c1cccc2c1c([N+](=O)[O-])cc1nc(O)c(O)nc12 [NBQX disodium salt],percent Bodipy-positive cells,[2],8.57 ± 1.6%
CC(=O)c1ccc2c(c1)N(CCCN1CCC(CCO)CC1)c1ccccc1S2 [Piperacetazine],percent Bodipy-positive cells,,35.2 ± 3.8%
CCCCCCCCCCCCCCCC(=O)OCC [Palmitic Acid ethyl ester],percent Bodipy-positive cells,[3],11.3 ± 3.9%
N#CC(=Cc1ccc(O)c(O)c1)C(=O)NCc1ccccc1 [AG-490 (Tyrphostin B42)],percent Bodipy-positive cells,[1],7.67 ± 0.99%
same,percent Bodipy-positive cells,[2],16.1 ± 9.8%
CO[C@@]1(NC(=O)Cc2cccs2)C(=O)N2C(C(=O)O)=C(COC(N)=O)CS[C@@H]21 [Cefoxitin sodium],percent Bodipy-positive cells,library stock concentration: 4.5 mM,10.2 ± 0.93%
same,percent Bodipy-positive cells,[2],28.2 ± 16%
CO[C@@]1(NC(=O)Cc2cccs2)C(=O)N2C(C(=O)O)=C(COC(N)=O)CS[C@@H]21 [Cefoxitin sodium salt],percent Bodipy-positive cells,,8.4 ± 1.5%
Br.CN(C)CCCC1(c2ccc(F)cc2)OCc2cc(C#N)ccc21 (stereo not drawn) [Citalopram hydrobromide],percent Bodipy-positive cells,[2],89.94 ± 0.78%
COc1ccccc1-c1cc(Nc2cccc(CS(N)(=O)=O)c2)ncn1,percent Bodipy-positive cells,[1],54.4 ± 8.5%
same,percent Bodipy-positive cells,[2],67.8 ± 7.5%
CC1(COc2ccc3c(c2)ncn3-c2ccc3cccc(N4CCC(N)CC4)c3n2)COC1,percent Bodipy-positive cells,[2],95.13 ± 0.56%
Cc1cncc(CN2CCC(=C3c4ccc(Cl)cc4CCc4cccnc43)CC2)c1.O=C(O)C=CC(=O)O [Rupatadine Fumarate],percent Bodipy-positive cells,[2],63.9 ± 0.84%
CCCCCCCCCCCCC/C=C/[C@@H](O)[C@H](CO)NC(=O)CCCCCCCCCCCCCCC [C16 Ceramide],percent Bodipy-positive cells,[3],13.1 ± 14%
O=C(CCCN1CCC(O)(c2ccc(Br)cc2)CC1)c1ccc(F)cc1 [Bromperidol],percent Bodipy-positive cells,,68.3 ± 1.6%
same,percent Bodipy-positive cells,[4],74.1 ± 21%
C[C@@H](Oc1cc(-n2cnc3ccc(CN4CCN(C)CC4)cc32)sc1C(N)=O)c1ccccc1C(F)(F)F,percent Bodipy-positive cells,library stock concentration: 80 uM,13.8 ± 2.8%
same,percent Bodipy-positive cells,library stock concentration: 400 uM,23.9 ± 5%
same,percent Bodipy-positive cells,[2],99.67 ± 0.47%
CNCC[C@H](Oc1cccc2ccccc12)c1cccs1,percent Bodipy-positive cells,[2],98.59 ± 0.34%
CNCC[C@H](Oc1cccc2ccccc12)c1cccs1 [Duloxetine HCl],percent Bodipy-positive cells,[1],61.9 ± 1.3%
same,percent Bodipy-positive cells,[2],99.59 ± 0.58%
